Part of at least one peptide drawing is inferred or uncertain, most often the ends.
Tested on: rat pancreas
Test: Perfused rat pancreas, insulin levels by radioimmunoassay
Format: in vivo
Conditions: for Insulin Produced: 0 minutes (before peptide added)

CC[C@H](C)[C@H](NC(=O)[C@H](Cc1ccccc1)NC(=O)[C@H](CCC(=O)O)NC(=O)[C@H](CCCCN)NC(=O)[C@H](C)NC(=O)[C@H](C)NC(=O)[C@H](CCC(N)=O)NC(=O)CNC(=O)[C@H](CCC(=O)O)NC(=O)[C@H](CC(C)C)NC(=O)[C@H](Cc1ccc(O)cc1)NC(=O)[C@H](CO)NC(=O)[C@H](CO)NC(=O)[C@@H](NC(=O)[C@H](CC(=O)O)NC(=O)[C@H](CO)NC(=O)[C@@H](NC(=O)[C@H](Cc1ccccc1)NC(=O)[C@@H](NC(=O)CNC(=O)[C@H](CCC(=O)O)NC(=O)[C@H](C)NC(=O)[C@@H](N)Cc1c[nH]cn1)[C@@H](C)O)[C@@H](C)O)C(C)C)C(=O)N[C@@H](C)C(=O)N[C@@H](Cc1c[nH]c2ccccc12)C(=O)N[C@@H](CC(C)C)C(=O)N[C@H](C(=O)N[C@@H](CCCCN)C(=O)NCC(=O)N[C@@H](CCCNC(=N)N)C(=O)NCC(=O)O)C(C)C [GLP-1 (7-37)]
Insulin Produced (5×10^-8 M): 925 picograms/ml
Insulin Produced (5×10^-10 M): 205 picograms/ml
increase in serum insulin concentrations (perfused rat pancreas, 5×10^-7 M): 132 fold

Reference: patent US5120712A, “Insulinotropic hormone” (The General Hospital Corporation, priority 1990, dated 1992)
